This is one part of the list. The main result of the screen is listed elsewhere. These columns were measured beside it and carry no call. Most of these compounds were active or inconclusive in the main read-out, so they are no random draw. Potencies come from curve fits of mixed quality, noted in brackets.
Test: qHTS Assay for Lipid Storage Modulators in Drosophila S3 Cells;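 as to cell number change: cells counted by Cell Tracker Red CMTPX staining in the red channel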
Settings: BODIPY lipid droplet fluorescence, 18-24 h; for cell number change: measured here: cell count max response, cells fed with added oleic acid
Procedure, shortened: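 Drosophila S3 cells got compounds at several concentrations plus oleic acid (400 uM solution). Laser-scanning cytometry with 488 nm excitation read lipid droplets at 500-530 nm and cells at 575-640 nm. Percent activity was relative to 20 uM Triacsin C.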

[1] = measured here: lipid fluorescence (Fed channel) AC50, cells fed with added oleic acid
[2] = measured here: cell number channel AC50, cells fed with added oleic acid

| Compound | cell number change | AC50 [1] | AC50 [2] |
| --- | --- | --- | --- |
| Cc1ccc(N(C(=O)c2ccc(CN3CCOCC3)o2)C(C(=O)NCCC(C)C)c2cccs2)c(C)c1 (stereo not given) | 28.6% | 1.84 µM [falling, partial curve, poor fit] |  |
| COC(=O)c1ccc(NC(=O)c2nc(S(=O)(=O)Cc3cccc(C)c3)ncc2Cl)cc1 |  | 6.51 µM [falling, single point] |  |
| O=C(Nc1nnc(-c2ccc(Br)cc2)o1)C1=COCCO1 | 17.7% |  |  |
| O=C(OCC(=O)N1CCOCC1)c1cccc(F)c1 | -13.5% | 25.9 µM [rising, single point] |  |
| CC1(C)OC(=O)C(=Cc2ccc(-c3ccc(S(N)(=O)=O)cc3)o2)C(=O)O1 | -42.1% |  | 0.0206 µM [falling, full curve, poor fit] |
| CC(C)n1c(=S)[nH]c2c1c(=O)[nH]c(=O)n2C | -8.77% |  |  |
| COC(=O)C(Cc1cnc(Cl)s1)(C(=O)OC)c1ccc([N+](=O)[O-])cc1 | 67.2% | 29.1 µM [rising, single point] | 18.4 µM [rising, single point] |
| CCCCC1(C)NC(=O)c2c(C)sc(C(=O)OCC)c2N1 (stereo not given) | 5.65% | 6.51 µM [falling, single point] |  |
| N/C(=N\OC(=O)c1ccc2c(c1)OCO2)c1ccc(Cl)cc1 | 2.76% |  |  |
| Cc1ccc(-c2nnn(CC(=O)N(Cc3ccco3)C(C(=O)NC(C)(C)C)c3ccc(C)o3)n2)o1 (stereo not given) | -54.8% | 3.26 µM [falling, partial curve, poor fit] | 10.3 µM [falling, partial curve] |
| COc1ccc(C)cc1S(=O)(=O)N1CC(C)OC(C)C1 (stereo not given) | -0.0228% |  | 5.8 µM [rising, single point] |
| CCC(=O)Nc1nonc1-c1nc2ccccc2n1N(C(=O)CC)C(=O)CC | -11.4% | 4.61 µM [falling, partial curve] |  |
| Cc1ccc(C(=O)c2ccccc2C(=O)OCC(=O)NCCc2ccc(Cl)cc2Cl)cc1 | -19.5% | 32.6 µM [falling, single point] |  |
| O=C(O)c1nn(-c2ccccc2)nc1-c1nn(-c2ccccc2)nc1C(=O)O | -16.9% |  |  |
| C/C(=C/CCC(C)C1CCC2(C)C3CCC4C(C)(C)C(=O)CCC4(C)C3=CCC12C)C(=O)O (stereo not given) | -22.7% | 0.651 µM [falling, single point] |  |
| COc1ccc(-c2[nH]ncc2CN(C)Cc2cnccn2)c(OC)c1 |  | 2.06 µM [falling, single point] |  |
| O=C(CCCSc1nc(-c2ccco2)cc(C(F)(F)F)n1)Nc1ccc2c(c1)OCO2 | -76.1% |  | 29.1 µM [falling, single point] |
| Cc1ccccc1OCc1nnc(SCC(=O)Nc2ccc3nc(SCC(=O)Nc4ccccc4)sc3c2)n1C | 14.3% | 0.206 µM [rising, partial curve] |  |
| CCCCN(CC)CCCNC(=O)CC1Oc2ccccc2NC1=O (stereo not given) | -40.8% | 5.17 µM [falling, partial curve] | 3.26 µM [falling, full curve] |

| Compound | cell number change | AC50 [1] | AC50 [2] |
| --- | --- | --- | --- |
| Cc1cc(C)cc(NC(=O)CS(=O)(=O)c2ccccc2)c1 | -14.8% | 1.46 µM [rising, partial curve, poor fit] |  |
| Cc1ccc(NC(=O)CCS(=O)(=O)c2ccc3nc(C)sc3c2)cc1 | 23.9% | 0.146 µM [rising, full curve, poor fit] | 0.13 µM [rising, full curve, poor fit] |
| Cc1cccc(C)c1-n1c(C)cc(/C=C2\NC(=O)NC2=O)c1C | -55.3% | 20.6 µM [falling, single point] | 20.6 µM [falling, single point] |
| Nc1nc(NCc2ccco2)nc(NC2CCCCC2)c1[N+](=O)[O-] | 8.04% | 0.259 µM [rising, full curve] |  |
| CC(=O)c1ccc(N2CCN(CC(O)COCc3ccco3)CC2)cc1 (stereo not given) | 7.52% |  |  |
| COCCNC(=O)COC(=O)CSCc1nc2ccccc2s1 | 6.36% |  |  |
| CC(C)CN(CCNC(=O)CN1C(=O)COc2ccc(S(=O)(=O)N3CCC(C)CC3)cc21)CC(C)C | 19.2% | 18.4 µM [rising, single point] |  |
| O=C(Nc1nc2nc(-c3ccccc3)cc(=O)n2[nH]1)c1ccc(F)cc1 | 17% | 32.6 µM [rising, single point] |  |
| CCCN1CCN(C(=O)C2CCN(S(=O)(=O)c3ccc4c(c3)NC(=O)C(C)S4)CC2)CC1 (stereo not given) | 14.2% | 0.0731 µM [rising, full curve, poor fit] |  |
| O=S(=O)(NCc1cccnc1)c1cccs1 | 5.22% |  |  |
| O=C(NCCCN=C1NS(=O)(=O)c2ccccc21)c1ccc(S(=O)(=O)N2CCOCC2)cc1 | -29% | 1.46 µM [falling, full curve, poor fit] | 0.13 µM [falling, full curve, poor fit] |
| CC(NCC(=O)Nc1ccccc1C(=O)NC1CC1)c1ccc(F)cc1F (stereo not given) | -29.9% | 2.31 µM [falling, single point] | 2.91 µM [falling, full curve, poor fit] |
| COc1ccc(-c2cc(C(F)F)n3ncc(C(=O)N4CCCCC4)c3n2)cc1 | -0.61% | 18.4 µM [falling, single point] |  |
| CCOC(=O)C1=C(C)N(c2ccccc2)C(=O)C1CC(=O)O (stereo not given) | 39.1% | 4.61 µM [falling, full curve, poor fit] | 29.1 µM [rising, single point] |
| Fc1ccccc1COc1ccccc1/C=N/Nc1nc(N2CCCC2)nc(N2CCCC2)n1 | 10.8% | 4.61 µM [falling, single point] |  |
| CCCNC(=O)C1(S(=O)(=O)c2ccccc2)CC=CC1 | 6.59% | 29.1 µM [rising, single point] |  |
| COc1ccc(CNc2ccc(C)c(C)c2)c(OC)c1OC | 0.221% | 6.51 µM [rising, partial curve, poor fit] | 6.51 µM [rising, single point] |
| N#CC1CN(Cc2ccccc2)CN(Cc2ccccc2)C1 | 15.2% | 5.17 µM [falling, partial curve, poor fit] | 2.59 µM [falling, single point] |
| N#CCCN(Cc1cccnc1)C(=S)NC(=O)c1ccc(S(=O)(=O)N2CCCC2)cc1 | 49.3% |  | 23.1 µM [rising, single point] |

| Compound | cell number change | AC50 [1] | AC50 [2] |
| --- | --- | --- | --- |
| Cc1cnc(Nc2nc3ccccc3o2)nc1C(=O)Nc1cccc(C(F)(F)F)c1 | -34.8% | 29.1 µM [falling, partial curve, poor fit] | 29.1 µM [falling, single point] |
| COc1cc(OC)c(OC)cc1CNCCNC(=O)c1nonc1N | 0.13% | 3.26 µM [falling, full curve, poor fit] |  |
| COc1cccc(CNC(=O)Cn2ccc3cc(S(=O)(=O)N4CCCC4)ccc32)c1 | -4.58% | 23.1 µM [rising, single point] |  |
| CCOc1ccc(/C(O)=C2/C(=O)C(=O)N(CCCN3CCOCC3)C2c2ccc(F)cc2)cc1C (stereo not given) |  |  | 0.58 µM [falling, single point] |
| Cc1cc(NC(=O)CCCn2nc(C)c([N+](=O)[O-])c2C)no1 | -9.63% |  | 3.66 µM [falling, single point] |
| COc1ccc(NC(=O)C/C(C)=N/NC(=O)COc2ccc(OC)cc2)cc1 | 26.9% |  |  |
| Nn1c(-c2ccco2)n[nH]c1=S | -10.4% | 0.103 µM [falling, full curve, poor fit] |  |
| CCOC(=O)c1cc(-c2csc(-c3ccc(C(F)(F)F)cc3)n2)on1 | 35.1% |  | 29.1 µM [rising, single point] |
| Cc1nc(CN2CCCCC2)cc(=O)[nH]1 | -6.43% | 0.00517 µM [falling, full curve, poor fit] |  |
| COc1cc(OC)c(NS(=O)(=O)c2cc(C(=O)OC(C)C(=O)NC3CC3)c(Cl)cc2Cl)cc1Cl (stereo not given) |  | 0.206 µM [falling, full curve, poor fit] |  |
| CCOC(=O)c1c(C)[nH]c(C)c1C(=O)COc1ccc(NC(=O)c2ccco2)cc1 | 136% | 1.64 µM [rising, partial curve] | 1.84 µM [rising, full curve] |
| Cc1ccc(N(CC(=O)NC2CCCC2)C(=O)CCCC(=O)Nc2ccccn2)cc1C |  | 6.51 µM [rising, single point] | 6.51 µM [rising, single point] |
| CC(C)n1c(NCc2ccccc2O)nc2ccccc21 | -11.5% | 23.1 µM [falling, single point] |  |
| O=C1CSC(c2cccc(F)c2)N1c1ccc(O)cc1 (stereo not given) | 43.4% |  | 29.1 µM [rising, single point] |
| COCCNC(=O)CN(C(=O)CCC(=O)Nc1ccccn1)c1ccccc1OC | 31.1% |  | 32.6 µM [rising, single point] |
| COc1ccc(OC)c(Nc2nc(N)nc(CSc3nnc(N)s3)n2)c1 | 10.4% | 0.651 µM [rising, full curve] | 0.411 µM [rising, full curve] |
| CSc1nc(Oc2ccccc2)c2sccc2n1 | -8.53% | 6.51 µM [falling, single point] | 0.651 µM [falling, full curve, poor fit] |
| COc1cc(C(=O)OCC(=O)N(C)C)cc(NC(=O)c2ccco2)c1OC | -4.76% |  |  |
| CC(=O)Oc1ccc2nc(/C=C/c3ccccc3)oc(=O)c2c1 | -4.74% | 32.6 µM [rising, single point] |  |

Part of the list above, reformatted.
Compound	cell number change	AC50 [1]	AC50 [2]
CCOC(=O)c1cc(-c2csc(-c3ccc(C(F)(F)F)cc3)n2)on1	35.1%		29.1 µM [rising, single point]
Cc1nc(CN2CCCCC2)cc(=O)[nH]1	-6.43%	0.00517 µM [falling, full curve, poor fit]	
